Measured values taken from patent US12295937B2, “Psychoactive medicines and their use for treating psychiatric and neurological conditions and disorders” (Transcend Therapeutics, Inc., priority 2021, dated 2025).

Test: Mouse fear extinction paradigm (PTSD model)
Assay type: in vivo
Details: methylone day 3; MBDB day 2
Excerpt: (FIG. 9A) Schematic of experimental design. A single CS-US (tone-shock) pairing on day 1 was followed by 6 CS presentations in a novel context (context B). […] On day 3, the time spent freezing to the CS was quantified. […] (FIG. 9C) No locomotor changes were observed on day 3 (t(26)=1.073, p>0.05). Data are mcan+/−SEM.
FIGS. 10A-10B: MBDB improves fear extinction in a PTSD mouse model. A single CS-US (tone-shock) pairing on day 1 was followed by 6 conditioned stimulus (CS) presentations in a novel context (context B). MBDB or saline vehicle was injected 30 min prior to extinction training on day 2. The time spent freezing to the CS was quantified on day 2. […] Data are mean+/−SEM. N=10 for MBDB group (5 mg/kg, IP) and N=16 for saline control group. **p<0.01 vs. vehicle control group.
Effective PTSD treatments facilitate the disassociation between a traumatic memory and the patient's fear response, making cues for the traumatic memory evoke less of a fear response. This is modeled in the mouse fear extinction paradigm (see FIG. 9A) which takes place over 3 days. […] On day 3 (extinction recall), the mice are “asked” if that tone (CS) still elicits a fearful response, as measured by the time spent freezing when the tone is presented. […]

Compound	Locomotor activity during fear extinction testing
CCC(Cc1ccc2c(c1)OCO2)NC (racemic) [MBDB, N-methyl-1-(1,3-benzodioxol-5-yl)-2-aminobutane]	small, but significant increase in locomotor activity
CNC(C)C(=O)c1ccc2c(c1)OCO2 (centres unmarked) [Methylone, 3,4-methylenedioxy-N-methylcathinone]	no differences between groups in locomotion
